Assay results from article PMC7819943, “Rice protein-binding microarrays: a tool to detect cis-acting elements near promoter regions in rice”.
Some of the results follow.

What follows are sequences tested against T1, OsSMF1 (Oryza sativa, UniProt Q6ZLB0 1-436) (assay: protein-binding microarray (RPBM); PBS, 2% BSA, 51.3 ng/ul salmon testes DNA, 50 uM zinc acetate, 200 nM TF, 25 C, 1 h; high values mean tight binding). Conditions: protein: recombinant; tags: N-terminal polyhistidine and DsRed monomer fusion (pET32a); chain copies: 2; label: CyDye5-dUTP incorporated in the synthesized complementary strand; 3' TTTTT single-stranded linker to array surface; dsDNA, one strand shown.
T1 sequence: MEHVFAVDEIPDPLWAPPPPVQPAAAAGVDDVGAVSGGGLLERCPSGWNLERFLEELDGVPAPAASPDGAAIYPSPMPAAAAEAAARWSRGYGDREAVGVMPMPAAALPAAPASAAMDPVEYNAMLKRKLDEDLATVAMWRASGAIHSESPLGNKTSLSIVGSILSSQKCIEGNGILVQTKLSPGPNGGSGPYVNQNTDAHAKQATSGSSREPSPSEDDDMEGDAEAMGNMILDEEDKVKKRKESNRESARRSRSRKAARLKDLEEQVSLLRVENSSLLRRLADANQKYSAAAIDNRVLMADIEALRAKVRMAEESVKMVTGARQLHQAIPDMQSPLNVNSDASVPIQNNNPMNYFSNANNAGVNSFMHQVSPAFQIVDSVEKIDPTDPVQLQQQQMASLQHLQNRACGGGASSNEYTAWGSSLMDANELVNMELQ
Method in brief: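 The binding signal is fluorescence intensity per array feature (arbitrary units). Readings came from an Axon 4000B scanner after a washed, 2% BSA-blocked, double-stranded custom Agilent array had been incubated for 1 h at 25 °C with 200 nM protein and 50 µM zinc acetate. The protein was a Ni–NTA-purified transcription factor fused N-terminally to polyhistidine and DsRed, expressed in E. coli BL21-CodonPlus.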

Sequence	binding signal
TGCGTTACCTTTTATAATAGCCGACGTGACACGCCAAAACCGGAGTCACCTAGTGCAG	3430 fluorescence intensity (a.u.)
ACCGCCGGGGCTGACCTCTCCTCCGATTGCCCGACGCCCGCGGAGTCACCTAGTGCAG	25100 fluorescence intensity (a.u.)
ACTGCTACTTGATCAAATGATGCTGAGTAGATCTACTTTACGGAGTCACCTAGTGCAG	5080 fluorescence intensity (a.u.)
TAAGTATGAAAAGAAACATAATATCTAGACAATCAAGCTGCGGAGTCACCTAGTGCAG	4330 fluorescence intensity (a.u.)
TATGTTGGGCACCGTTTGTGTTCATCAGCCCATCACTCTTCGGAGTCACCTAGTGCAG	3420 fluorescence intensity (a.u.)
GATGCGCGGGCCTCAACGTTCAGTGGCGGCACGCCACACGCGGAGTCACCTAGTGCAG	22900 fluorescence intensity (a.u.)
AGGCGGCGATGGGCCTTGGGCTTTGATCCGTGGGCTGTGGCGGAGTCACCTAGTGCAG	5820 fluorescence intensity (a.u.)
CTCTCATCAAATAATATCTTGCAGCAGTTTGCTGATGCATCGGAGTCACCTAGTGCAG	3620 fluorescence intensity (a.u.)
TGGCTTGTTGATGCTTTGCTGGCGTGTTTTGGTTTCATTTCGGAGTCACCTAGTGCAG	6270 fluorescence intensity (a.u.)
TCCAGGGAGCCGCGGTGGCATATGTTGCTGACATGTTTTCCGGAGTCACCTAGTGCAG	5340 fluorescence intensity (a.u.)
GCGGAGGAGGTGGTGGTGGTGGAGGAGGAGGAGGCCAAGGCGGAGTCACCTAGTGCAG	4030 fluorescence intensity (a.u.)
GCAGCAACAACCGCCGCGCCATTGATGACTAATTGAGATCCGGAGTCACCTAGTGCAG	4120 fluorescence intensity (a.u.)
AACAGTCCTGCGTGTTGACTTGGCTAGTTGGACCAGGTCACGGAGTCACCTAGTGCAG	25500 fluorescence intensity (a.u.)
CCAGATTTTAACATGTTTTACTGCCTTACACGTCCACTGTCGGAGTCACCTAGTGCAG	3840 fluorescence intensity (a.u.)
CCACCTTTAAATCCATGTGGATCCCACCCCACCGCCTCCTCGGAGTCACCTAGTGCAG	3660 fluorescence intensity (a.u.)
ATATCGACTACACACTGTTCTTGGCTACATCGATTGATTGCGGAGTCACCTAGTGCAG	4840 fluorescence intensity (a.u.)
CAATACCAATACTCAACCATTACATATATATGTAATTGTGCGGAGTCACCTAGTGCAG	3430 fluorescence intensity (a.u.)
CCGTATGCAAGGGGAAAGGAAACGCAATCGGAGTATGCTGCGGAGTCACCTAGTGCAG	28600 fluorescence intensity (a.u.)
TTTATCTAATTAAAATATATTTATAGCTGACTAATAGTCTCGGAGTCACCTAGTGCAG	3480 fluorescence intensity (a.u.)
CAGAGAAGAACGTCATCACGTGGACAGCGATGATCTCTGGCGGAGTCACCTAGTGCAG	5620 fluorescence intensity (a.u.)
ATTCCCGACATCCAAACGGGAATCGACTCGCCGTTGCTGACGGAGTCACCTAGTGCAG	4500 fluorescence intensity (a.u.)

Sequence	binding signal
AACACCGCCATTGAAGCCTCATCGAGCTCTCTTACCAACGCGGAGTCACCTAGTGCAG	3230 fluorescence intensity (a.u.)
AAGGGCAGCTCAGTCATGGCTGCCACGAGGACAGATGTGGCGGAGTCACCTAGTGCAG	4760 fluorescence intensity (a.u.)
CCAATCCCACGCCACGCCACCGCTCGAGCCGATTCGAATCCGGAGTCACCTAGTGCAG	5090 fluorescence intensity (a.u.)
CATGGCCGGAGAAGCTGACGCGGAACGGCACCTCGCTCGCCGGAGTCACCTAGTGCAG	5580 fluorescence intensity (a.u.)
TCTTCTGATCAGGACAGAGAGGAACGTCATATGACGTTCGCGGAGTCACCTAGTGCAG	4300 fluorescence intensity (a.u.)
GGCGCAGATGTGCGTGGTCGCCAGCAAGGAGTCAGTTGGCCGGAGTCACCTAGTGCAG	4780 fluorescence intensity (a.u.)
CATCCACGTGGTGCCGCACCTAACCAGCGTAGCAGTTGCTCGGAGTCACCTAGTGCAG	5710 fluorescence intensity (a.u.)
GGGGCCATCCTCTTTCTCTGAGGATCATCATGCCTTGAGGCGGAGTCACCTAGTGCAG	37600 fluorescence intensity (a.u.)
CCACACAGCGATAATCGAGCGGATTGGACCAAAGTACGAGCGGAGTCACCTAGTGCAG	38200 fluorescence intensity (a.u.)
GCCTCTTGCATTTGCTGCCGCCGCCGCCCCGACCGCCGCACGGAGTCACCTAGTGCAG	3260 fluorescence intensity (a.u.)
TTCTTTGAATGTGAGTTGACATGCTTGTTTTCTCATCAGGCGGAGTCACCTAGTGCAG	3370 fluorescence intensity (a.u.)
TATTTTAAATGGGTATCCATATATCCGATGTGACACGGCACGGAGTCACCTAGTGCAG	4630 fluorescence intensity (a.u.)
CGGGTAGGGTGGGGTGGGGCGGGGTGGGGTTGGCGGCGACCGGAGTCACCTAGTGCAG	5320 fluorescence intensity (a.u.)
GCACGACCGCGTGCACATGCTCGTCGTGGCAGTGCTTCTTCGGAGTCACCTAGTGCAG	3810 fluorescence intensity (a.u.)
AAATACTTTGAATTCCACGTATAACTGCACACCATGTGTTCGGAGTCACCTAGTGCAG	6760 fluorescence intensity (a.u.)
TTGGAAGTTTATGTGTGTAGAAAAGTTTTGATGTAATGAACGGAGTCACCTAGTGCAG	44400 fluorescence intensity (a.u.)
CACCAATCGACATGGCGTCAGCAGGAGAAAACCGGCGGCACGGAGTCACCTAGTGCAG	5310 fluorescence intensity (a.u.)
GCAAGTTTAGGAACCGGAATGACACAGTCGAACAAGTTTGCGGAGTCACCTAGTGCAG	4090 fluorescence intensity (a.u.)
AAGAGATGTGGCAATCTTGAAGAGAAAATTATCTACCTTGCGGAGTCACCTAGTGCAG	3430 fluorescence intensity (a.u.)
GAACTCTGAAGAAAGTAGTGTTGCGTTGGCAAACCCTTCTCGGAGTCACCTAGTGCAG	4230 fluorescence intensity (a.u.)
TCACTCATTTATCCGATGTGATGGCTGAGTCAGCATGGGACGGAGTCACCTAGTGCAG	21100 fluorescence intensity (a.u.)

Exported with bars between the fields: entries from further up.
Sequence | binding signal
GGGGCCATCCTCTTTCTCTGAGGATCATCATGCCTTGAGGCGGAGTCACCTAGTGCAG | 37600 fluorescence intensity (a.u.)
CCACACAGCGATAATCGAGCGGATTGGACCAAAGTACGAGCGGAGTCACCTAGTGCAG | 38200 fluorescence intensity (a.u.)
GCCTCTTGCATTTGCTGCCGCCGCCGCCCCGACCGCCGCACGGAGTCACCTAGTGCAG | 3260 fluorescence intensity (a.u.)
TTCTTTGAATGTGAGTTGACATGCTTGTTTTCTCATCAGGCGGAGTCACCTAGTGCAG | 3370 fluorescence intensity (a.u.)
